These are yes or no findings as the source states them, for the method shown. Binding seen in cells or lysates may run through a third protein. Some results given as binding are weak or reduced against the parent protein; the word gives no strength.
How the values were obtained:
BioID2-UCHL1 (wild type) = BioID2-UCHL1 (wild type) (UniProt P09936); test: co-IP; immunoprecipitation from KMS11 lysates (0.5% NP40) of BioID2-UCHL1 fusions or C-terminal HA-tagged UCH-L1, blots probed for eIF4A
[1] = target: UCH-L1 wild type with C-terminal HA tag (UniProt P09936); test: as above

By UniProt entry, the sequences of proteins in these tests, tags left out.
UniProt P09936: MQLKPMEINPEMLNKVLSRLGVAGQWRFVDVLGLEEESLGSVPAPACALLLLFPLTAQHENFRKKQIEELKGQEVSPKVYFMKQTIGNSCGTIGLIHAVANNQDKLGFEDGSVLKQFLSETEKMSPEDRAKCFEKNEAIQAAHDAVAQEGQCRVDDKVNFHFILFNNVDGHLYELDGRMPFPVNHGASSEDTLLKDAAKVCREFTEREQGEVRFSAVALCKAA
UniProt P60842: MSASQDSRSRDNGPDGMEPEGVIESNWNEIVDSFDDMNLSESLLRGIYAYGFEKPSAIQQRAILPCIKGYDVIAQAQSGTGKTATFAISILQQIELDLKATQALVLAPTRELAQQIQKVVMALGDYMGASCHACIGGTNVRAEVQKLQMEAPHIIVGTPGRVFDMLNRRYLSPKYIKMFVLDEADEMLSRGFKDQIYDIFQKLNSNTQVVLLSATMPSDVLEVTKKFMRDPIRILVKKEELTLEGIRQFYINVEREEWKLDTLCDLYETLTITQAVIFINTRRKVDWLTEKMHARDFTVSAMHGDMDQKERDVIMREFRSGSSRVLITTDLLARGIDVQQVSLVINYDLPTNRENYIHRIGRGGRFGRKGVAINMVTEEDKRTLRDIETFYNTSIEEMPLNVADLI

binding (BioID2-UCHL1 (wild type)): binds | binding [1]: binds
Substance: eIF4A (eIF4F complex subunit) (from UniProt P60842 1-406)
